# Assay results from the supplement of paper PMC8728848.
# Some of the results follow.
# Tests used:
# Assay in all cases: glycan array binding signal (z-score within array); higher = stronger binding
# Details in all cases: glycan notation: IUPAC condensed, linker removed
# [1] = biological target: GlcNAc(b1-3)Gal(b1-4)GlcNAc(b1-3)Gal(b1-4)GlcNAc(b1-3)GalNAc
# How it was run: (§1)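 Glycan array data came from 3228 arrays in the Consortium for Functional Glycomics database, and only arrays with an available protein sequence were kept. Glycan names were put into IUPAC-condensed notation, and columns mapping to the same glycan were averaged. The binding signal is a within-array Z-score, averaged across arrays of one protein sequence run at different concentrations or buffers and across linkers. A negative Z-score can be read as non-binding.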
# [2] = biological target: GlcNAc(b1-3)Gal(b1-4)GlcNAc(b1-3)GalNAc
# How it was run: as §1
# [3] = biological target: GlcNAc(b1-3)Gal(b1-4)GlcNAc(b1-3)[GlcNAc(b1-3)Gal(b1-4)GlcNAc(b1-3)]GalNAc
# How it was run: as §1
# [4] = biological target: GlcNAc(b1-3)Gal(b1-4)GlcNAc(b1-6)[Gal(b1-3)]GalNAc
# How it was run: as §1
# [5] = biological target: GlcNAc(b1-3)Gal(b1-4)GlcNAc(b1-6)[GlcNAc(b1-3)Gal(b1-3)]GalNAc
# How it was run: as §1
# [6] = biological target: GlcNAc(b1-3)Gal(b1-4)GlcNAc(b1-6)[GlcNAc(b1-3)]Gal(b1-4)GlcNAc
# How it was run: as §1
# [7] = biological target: GlcNAc(b1-3)GalNAc
# How it was run: as §1
# [8] = biological target: GlcNAc(b1-3)Man
# How it was run: as §1
# [9] = biological target: GlcNAc(b1-3)[GlcNAc(b1-4)][GlcNAc(b1-6)]GlcNAc
# How it was run: as §1
# [10] = biological target: GlcNAc(b1-3)[GlcNAc(b1-6)]Gal(b1-4)GlcNAc
# How it was run: as §1
# [11] = biological target: GlcNAc(b1-3)[GlcNAc(b1-6)]GalNAc
# How it was run: as §1
# [12] = biological target: GlcNAc(b1-4)Gal(b1-4)GlcNAc
# How it was run: as §1
# [13] = biological target: GlcNAc(b1-4)GlcNAc
# How it was run: as §1
# [14] = biological target: GlcNAc(b1-4)GlcNAc(b1-4)GlcNAc
# How it was run: as §1
# [15] = biological target: GlcNAc(b1-4)GlcNAc(b1-4)GlcNAc(b1-4)GlcNAc(b1-4)GlcNAc
# How it was run: as §1
# [16] = biological target: GlcNAc(b1-4)GlcNAc(b1-4)GlcNAc(b1-4)GlcNAc(b1-4)GlcNAc(b1-4)GlcNAc
# How it was run: as §1
# [17] = biological target: GlcNAc(b1-4)[GlcNAc(b1-6)]GalNAc
# How it was run: as §1
# [18] = biological target: GlcNAc(b1-6)Gal(b1-4)GlcNAc
# How it was run: as §1
# [19] = biological target: GlcNAc(b1-6)GalNAc
# How it was run: as §1
# [20] = biological target: GlcNAc6S(b1-3)Gal(b1-4)GlcNAc
# How it was run: as §1
# [21] = biological target: Kdn(a2-3)Gal(b1-3)GalNAc
# How it was run: as §1
# [22] = biological target: Kdn(a2-3)Gal(b1-3)GlcNAc
# How it was run: as §1
# [23] = biological target: Kdn(a2-3)Gal(b1-4)Glc
# How it was run: as §1
# [24] = biological target: Kdn(a2-3)Gal(b1-4)GlcNAc
# How it was run: as §1
# [25] = biological target: Kdn(a2-3)Gal(b1-4)[Fuc(a1-3)]GlcNAc
# How it was run: as §1
# [26] = biological target: Kdn(a2-6)Gal(b1-4)GlcNAc
# How it was run: as §1
# [27] = biological target: Man(a1-2)Man(a1-2)Man(a1-3)Man
# How it was run: as §1
# [28] = biological target: Man(a1-2)Man(a1-2)Man(a1-6)[Man(a1-3)]Man
# How it was run: as §1
# [29] = biological target: Man(a1-2)Man(a1-3)Man
# How it was run: as §1
# [30] = biological target: Man(a1-2)Man(a1-3)[Man(a1-2)Man(a1-6)]Man
# How it was run: as §1
# [31] = biological target: Man(a1-2)Man(a1-3)[Man(a1-2)Man(a1-6)]Man(a1-6)[Man(a1-2)Man(a1-2)Man(a1-3)]Man
# How it was run: as §1
# [32] = biological target: Man(a1-2)Man(a1-3)[Man(a1-2)Man(a1-6)]Man(a1-6)[Man(a1-2)Man(a1-2)Man(a1-3)]Man(b1-4)GlcNAc(b1-4)GlcNAc
# How it was run: as §1
# [33] = biological target: Man(a1-2)Man(a1-3)[Man(a1-6)]Man(a1-6)[Man(a1-2)Man(a1-3)]Man(b1-4)GlcNAc(b1-4)GlcNAc
# How it was run: as §1
# [34] = biological target: Man(a1-2)Man(a1-6)[Man(a1-3)]Man(a1-6)[Man(a1-2)Man(a1-2)Man(a1-3)]Man
# How it was run: as §1
# [35] = biological target: Man(a1-2)Man(a1-6)[Man(a1-3)]Man(a1-6)[Man(a1-2)Man(a1-2)Man(a1-3)]Man(b1-4)GlcNAc(b1-4)GlcNAc
# How it was run: as §1
# [36] = biological target: Man(a1-3)[Man(a1-6)]Man
# How it was run: as §1
# [37] = biological target: Man(a1-3)[Man(a1-6)]Man(a1-6)[Man(a1-2)Man(a1-3)]Man(b1-4)GlcNAc(b1-4)GlcNAc
# How it was run: as §1
binder,measurement,setting,value
PX14375A-pdi-503-28-503 (Parabacteroides distasonis) (protein) PLGSPEAGDISEERQAFLRLTAVYSVMKDFRYTWSMQCFGDVLSNDATYSGSSNDAQTFTLLENYQYQADHTEILNKYRYSYQCINKANLFIRDMEMADDALFSKYDKEQMIGEAKFIRAYTYFELVKTFGGVPCYTGVLDLDHERLGRASVEEIYSVIEQDLNDAVSVLPKKSEVANYESSYAGRITKGAAIAMQTRIYLYEKKYDEVKKAFEKFQNECGGEYSLVAPEDYTWQFSLDGEHCSSSILEVNMYNSSTQSSYNVNNGNRHVLMSMPRNMTIGFGCAQPTQALADAYDAEGDVIRKKTTLLSTEEAIEIETAAKGDVAPVTDDRTGWYNRKLYLAPGQREENRGNNQPTNLRLIRLAEVYLNYAEACYFSGDIANAQKYLNEVRSHVNLAPKNHTGSQLFEDIMNERHLEFGMEGFRFFDVVRVGWGEKVFNGTKKAEFGAKTPFSAGAEVLPIPQTEIDISDGLITN,glycan array binding signal (z-score),[1],0.216
same,glycan array binding signal (z-score),[2],-0.686
same,glycan array binding signal (z-score),[3],-0.312
same,glycan array binding signal (z-score),[4],-0.135
same,glycan array binding signal (z-score),[5],-0.061
same,glycan array binding signal (z-score),[6],0.13
same,glycan array binding signal (z-score),[7],-0.217
same,glycan array binding signal (z-score),[8],0.149
same,glycan array binding signal (z-score),[9],0.364
same,glycan array binding signal (z-score),[10],-0.494
same,glycan array binding signal (z-score),[11],-0.103
same,glycan array binding signal (z-score),[12],0.229
same,glycan array binding signal (z-score),[13],0.584
same,glycan array binding signal (z-score),[14],-0.657
same,glycan array binding signal (z-score),[15],0.058
same,glycan array binding signal (z-score),[16],-0.487
same,glycan array binding signal (z-score),[17],2.82
same,glycan array binding signal (z-score),[18],0.4
same,glycan array binding signal (z-score),[19],0.786
same,glycan array binding signal (z-score),[20],0.113
same,glycan array binding signal (z-score),[21],0.322
same,glycan array binding signal (z-score),[22],-0.519
same,glycan array binding signal (z-score),[23],-0.245
same,glycan array binding signal (z-score),[24],-0.314
same,glycan array binding signal (z-score),[25],0.745
same,glycan array binding signal (z-score),[26],0.091
same,glycan array binding signal (z-score),[27],-0.487
same,glycan array binding signal (z-score),[28],0.511
same,glycan array binding signal (z-score),[29],-0.314
same,glycan array binding signal (z-score),[30],-0.754
same,glycan array binding signal (z-score),[31],1.42
same,glycan array binding signal (z-score),[32],-0.524
same,glycan array binding signal (z-score),[33],-0.13
same,glycan array binding signal (z-score),[34],-0.437
same,glycan array binding signal (z-score),[35],-0.976
same,glycan array binding signal (z-score),[36],-0.311
same,glycan array binding signal (z-score),[37],-0.406

# Nothing new here: entries from further up.
binder,measurement,setting,value
PX14375A-pdi-503-28-503 (Parabacteroides distasonis) (protein) PLGSPEAGDISEERQAFLRLTAVYSVMKDFRYTWSMQCFGDVLSNDATYSGSSNDAQTFTLLENYQYQADHTEILNKYRYSYQCINKANLFIRDMEMADDALFSKYDKEQMIGEAKFIRAYTYFELVKTFGGVPCYTGVLDLDHERLGRASVEEIYSVIEQDLNDAVSVLPKKSEVANYESSYAGRITKGAAIAMQTRIYLYEKKYDEVKKAFEKFQNECGGEYSLVAPEDYTWQFSLDGEHCSSSILEVNMYNSSTQSSYNVNNGNRHVLMSMPRNMTIGFGCAQPTQALADAYDAEGDVIRKKTTLLSTEEAIEIETAAKGDVAPVTDDRTGWYNRKLYLAPGQREENRGNNQPTNLRLIRLAEVYLNYAEACYFSGDIANAQKYLNEVRSHVNLAPKNHTGSQLFEDIMNERHLEFGMEGFRFFDVVRVGWGEKVFNGTKKAEFGAKTPFSAGAEVLPIPQTEIDISDGLITN,glycan array binding signal (z-score),[33],-0.13
same,glycan array binding signal (z-score),[34],-0.437
